These are yes or no findings as the source states them, for the method shown. Binding seen in cells or lysates may run through a third protein. Some entries that bind do so weakly or less than the wild type.
Key:
[1] = biological target: sigma-1 receptor, overexpressed untagged (UniProt Q99720); assay: co-IP; HEK-293 lysates precipitated with rabbit serum against σ1R on AminoLink Plus Coupling Resin, 14-18 h at 4 °C; blot probed with anti-DAT, re-probed with anti-σ1R
[2] = biological target: sigma-1 receptor, endogenous in HEK-293 cells (human (endogenous in HEK-293)) (UniProt Q99720); assay: as above

The chains behind the UniProt entries cited, without tags or fusion partners.
UniProt Q99720: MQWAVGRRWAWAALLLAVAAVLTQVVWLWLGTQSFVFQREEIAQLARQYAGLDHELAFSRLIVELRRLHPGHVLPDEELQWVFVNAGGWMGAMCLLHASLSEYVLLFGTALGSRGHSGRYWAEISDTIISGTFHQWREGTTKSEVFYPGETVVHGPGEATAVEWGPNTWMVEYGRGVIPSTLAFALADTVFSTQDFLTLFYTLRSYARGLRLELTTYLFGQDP
UniProt Q61327: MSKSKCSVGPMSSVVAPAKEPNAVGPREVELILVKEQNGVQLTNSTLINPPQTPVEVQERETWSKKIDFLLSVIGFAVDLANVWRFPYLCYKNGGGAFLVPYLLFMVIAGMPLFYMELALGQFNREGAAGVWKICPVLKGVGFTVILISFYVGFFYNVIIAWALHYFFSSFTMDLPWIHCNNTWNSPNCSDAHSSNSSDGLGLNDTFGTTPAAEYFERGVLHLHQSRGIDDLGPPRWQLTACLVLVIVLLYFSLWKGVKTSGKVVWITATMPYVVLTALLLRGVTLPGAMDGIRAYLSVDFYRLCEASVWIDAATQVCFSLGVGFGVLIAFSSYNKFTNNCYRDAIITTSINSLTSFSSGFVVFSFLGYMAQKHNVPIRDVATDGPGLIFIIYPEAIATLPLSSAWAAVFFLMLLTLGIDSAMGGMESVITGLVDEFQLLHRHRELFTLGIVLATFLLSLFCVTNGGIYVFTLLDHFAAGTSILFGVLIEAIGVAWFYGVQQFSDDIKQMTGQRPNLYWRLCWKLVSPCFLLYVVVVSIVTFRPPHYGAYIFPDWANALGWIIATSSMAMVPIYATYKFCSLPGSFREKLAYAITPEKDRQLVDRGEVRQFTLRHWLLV

binding [1]: binds
binding [2]: binds
Substance: dopamine transporter (mDAT) (from UniProt Q61327 1-619)
